Data as given in PubChem BioAssay AID1224826 (NIAID, 2016).

Purpose: 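Knock-downs that raise or lower Tnf reporter signal after endotoxin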 (primary screen)
Cells: RAW264.7 G9 macrophages from mouse bearing reporters for p65 (GFP) and the Tnf promoter (mCherry)
Reagents: siRNA pool against mouse genes, 100 nM
Duration: 16 h of LPS stimulation, after 2 days of siRNA transfection
Treatment: bacterial lipopolysaccharide (Salmonella minnesota R595), 10 ng/ml
Read-out: 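Imaged Tnf reporter mCherry in nuclei, minus background, normalised per plate to the median and expressed as robust z-scores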
Scale: Tnf reporter robust z-score: higher = stronger Tnf promoter reporter signal after LPS; Tnf reporter intensity: higher = stronger Tnf promoter reporter signal
Rule for the call: 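Called active when robust z-score is at most -1.3, matching the median of the Tlr4 knock-down control, or over 3; control wells and wells with under 50 cells never active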
Calls: active = Tnf reporter clearly lowered or raised; inactive = no clear change in Tnf reporter
Here is an unselected part of about 17,000 deposited reagents. About 1,110 of all reagents (6.6%) count as active. 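Active means lowered or raised reporter signal; replicate intensities are raw and not normalised per plate.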 A number with no mark means an inactive call. The numbers tell different reagents against one gene apart. No sequences are given here.

gene | reagent no. | Tnf reporter robust z-score | fewer than 50 cells in well | Tnf reporter intensity, replicate 1 | Tnf reporter intensity, replicate 2
Or10g7 | 1 | – | fewer than 50 cells per well; well left out of calls | 63.1 | 88.4
Pla2g12b | 1 | 0.63 | enough cells in well | 143 | 172
Dmpk | 1 | 1.69 | enough cells in well | 324 | 234
Or4c116 | 1 | -0.35 | enough cells in well | 161 | 136
Cox11 | 1 | – | fewer than 50 cells per well; well left out of calls | 78.3 | 146
H2-K1 | 1 | 0.84 | enough cells in well | 272 | 271
H2-K1 | 2 | -0.72 | enough cells in well | 149 | 106
Pik3c2a | 1 | -0.5 | enough cells in well | 159 | 137
Dglucy | 1 | -0.94 | enough cells in well | 139 | 112
Sprr2g | 1 | 0.41 | enough cells in well | 101 | 125
Plp1 | 1 | 0.32 | enough cells in well | 271 | 215
Psmd10 | 1 | 0.1 | enough cells in well | 134 | 134
Sult1c2 | 1 | 1.17 | enough cells in well | 150 | 130
Timm23 | 1 | 2.74 | enough cells in well | 235 | 172
Nf2 | 1 | 1.05 | enough cells in well | 382 | 257
Usp53 | 1 | 0.93 | enough cells in well | 222 | 147
Usp53 | 2 | -0.74 | enough cells in well | 143 | 99.3
Rcor3 | 1 | -0.18 | enough cells in well | 114 | 126
Exph5 | 1 | 0.32 | enough cells in well | 94.1 | 132
Ebag9 | 1 | -0.41 | enough cells in well | 216 | 177
Rpp25 | 1 | -0.7 | enough cells in well | 95.1 | 100
Speer4f1 | 1 | 0.87 | enough cells in well | 156 | 104
Hsd3b7 | 1 | -0.36 | enough cells in well | 166 | 118
AY358078 | 1 | -0.89 | enough cells in well | 136 | 99.3
Vamp7 | 1 | 2.01 | enough cells in well | 259 | 103
Ccni | 1 | -1.2 | enough cells in well | 165 | 107
Ifngr1 | 1 | -0.1 | enough cells in well | 222 | 189
Snai2 | 1 | 0.76 | enough cells in well | 374 | 251
Or11i1 | 1 | – | fewer than 50 cells per well; well left out of calls | 90.2 | 66.2
Mrpl34 | 1 | 0.19 | enough cells in well | 244 | 111
Nt5c3b | 1 | 1.04 | enough cells in well | 208 | 130
A630005I04Rik (retired record) | 1 | -1.37 (active) | enough cells in well | 90.5 | 111
Glp1r | 1 | 0.29 | enough cells in well | 234 | 327
Rfx1 | 1 | -0.79 | enough cells in well | 207 | 163
Tvp23b | 1 | 0.38 | enough cells in well | 212 | 70.2
Ugt1a2 | 1 | – | fewer than 50 cells per well; well left out of calls | 34.1 | 0
Mrps9 | 1 | -0.26 | enough cells in well | 230 | 84
Olig3 | 1 | -1.62 (active) | enough cells in well | 137 | 61.1
Ttc16 | 1 | -0.32 | enough cells in well | 132 | 74.5
Slc17a2 | 1 | 0 | enough cells in well | 153 | 191
Or5b119 | 1 | 0.41 | enough cells in well | 196 | 144
Emc7 | 1 | – | fewer than 50 cells per well; well left out of calls | 126 | 57.9
Zic5 | 1 | 1.75 | enough cells in well | 185 | 213
Gtsf1l | 1 | 0.47 | enough cells in well | 288 | 82.1
Or56b35 | 1 | -0.24 | enough cells in well | 85.8 | 107
Fezf2 | 1 | 2.25 | enough cells in well | 209 | 231
Msrb1 | 1 | -0.33 | enough cells in well | 115 | 62.3
Ly6i | 1 | 0.14 | enough cells in well | 175 | 173
Epb41l2 | 1 | 1.11 | enough cells in well | 333 | 192
Rpl36 | 1 | -0.66 | enough cells in well | 96.1 | 102
Gpaa1 | 1 | -0.32 | enough cells in well | 192 | 186
Serpinb1b | 1 | 1.15 | enough cells in well | 125 | 141
Or10j5 | 1 | 1.47 | enough cells in well | 263 | 186
Hectd3 | 1 | -0.53 | enough cells in well | 177 | 29.3
Cdc5l | 1 | -0.59 | enough cells in well | 171 | 192
M1ap | 1 | -0.79 | enough cells in well | 162 | 99.3
Or5an1c | 1 | -1.51 (active) | enough cells in well | 94.1 | 85.6
Rbfox2 | 1 | 4.53 (active) | enough cells in well | 360 | 286
Kcnip3 | 1 | 0.24 | enough cells in well | 256 | 218
Skint7 | 1 | -1.54 (active) | enough cells in well | 54.8 | 76.3
Sack1f | 1 | 0.51 | enough cells in well | 248 | 150
Pdlim1 | 1 | -0.07 | enough cells in well | 220 | 190
Cbx5 | 1 | 0.58 | enough cells in well | 288 | 256
Aldh7a1 | 1 | -1.05 | enough cells in well | 112 | 109
Gpr137 | 1 | 0.09 | enough cells in well | 212 | 322
Mettl14 | 1 | -1.14 | enough cells in well | 176 | 68.5
Tspan6 | 1 | 2.6 | enough cells in well | 222 | 174
Ddx56 | 1 | -0.88 | enough cells in well | 167 | 85.2
Clybl | 1 | 0.13 | enough cells in well | 194 | 154
Cyp2d34 | 1 | 1.62 | enough cells in well | 273 | 244
Otog | 1 | 0.38 | enough cells in well | 130 | 184
Ppargc1a | 1 | 0.55 | enough cells in well | 292 | 228
Ppargc1a | 2 | -1.08 | enough cells in well | 106 | 110
Slc66a2 | 1 | – | fewer than 50 cells per well; well left out of calls | 90.5 | 8.5
Nifk | 1 | 1.15 | enough cells in well | 369 | 282

Reformatted: entries from further up
{"gene": "Glp1r", "reagent no.": 1, "Tnf reporter robust z-score": 0.29, "fewer than 50 cells in well": "enough cells in well", "Tnf reporter intensity, replicate 1": 234, "Tnf reporter intensity, replicate 2": 327}
{"gene": "Rfx1", "reagent no.": 1, "Tnf reporter robust z-score": -0.79, "fewer than 50 cells in well": "enough cells in well", "Tnf reporter intensity, replicate 1": 207, "Tnf reporter intensity, replicate 2": 163}
{"gene": "Tvp23b", "reagent no.": 1, "Tnf reporter robust z-score": 0.38, "fewer than 50 cells in well": "enough cells in well", "Tnf reporter intensity, replicate 1": 212, "Tnf reporter intensity, replicate 2": 70.2}
{"gene": "Ugt1a2", "reagent no.": 1, "fewer than 50 cells in well": "fewer than 50 cells per well; well left out of calls", "Tnf reporter intensity, replicate 1": 34.1, "Tnf reporter intensity, replicate 2": 0}
{"gene": "Mrps9", "reagent no.": 1, "Tnf reporter robust z-score": -0.26, "fewer than 50 cells in well": "enough cells in well", "Tnf reporter intensity, replicate 1": 230, "Tnf reporter intensity, replicate 2": 84}
{"gene": "Olig3", "reagent no.": 1, "Tnf reporter robust z-score": "-1.62 (active)", "fewer than 50 cells in well": "enough cells in well", "Tnf reporter intensity, replicate 1": 137, "Tnf reporter intensity, replicate 2": 61.1}
{"gene": "Ttc16", "reagent no.": 1, "Tnf reporter robust z-score": -0.32, "fewer than 50 cells in well": "enough cells in well", "Tnf reporter intensity, replicate 1": 132, "Tnf reporter intensity, replicate 2": 74.5}
{"gene": "Slc17a2", "reagent no.": 1, "Tnf reporter robust z-score": 0, "fewer than 50 cells in well": "enough cells in well", "Tnf reporter intensity, replicate 1": 153, "Tnf reporter intensity, replicate 2": 191}
{"gene": "Or5b119", "reagent no.": 1, "Tnf reporter robust z-score": 0.41, "fewer than 50 cells in well": "enough cells in well", "Tnf reporter intensity, replicate 1": 196, "Tnf reporter intensity, replicate 2": 144}
{"gene": "Emc7", "reagent no.": 1, "fewer than 50 cells in well": "fewer than 50 cells per well; well left out of calls", "Tnf reporter intensity, replicate 1": 126, "Tnf reporter intensity, replicate 2": 57.9}
{"gene": "Zic5", "reagent no.": 1, "Tnf reporter robust z-score": 1.75, "fewer than 50 cells in well": "enough cells in well", "Tnf reporter intensity, replicate 1": 185, "Tnf reporter intensity, replicate 2": 213}
{"gene": "Gtsf1l", "reagent no.": 1, "Tnf reporter robust z-score": 0.47, "fewer than 50 cells in well": "enough cells in well", "Tnf reporter intensity, replicate 1": 288, "Tnf reporter intensity, replicate 2": 82.1}
